PubChem BioAssay AID540276 (National Center for Advancing Translational Sciences (NCATS), 2011)
In all, about 300,000 compounds went through this assay and about 5,400 (1.8%) were called active. Inconclusive means that the source gave no clear call. Such entries were picked first, then a sample of the others. Calls come from the whole dose curve; tested in HEK293 cells. Potencies of inconclusive entries are doubtful fits and often do not repeat.

Experiment: qHTS for inhibitors of binding or entry into cells for Marburg Virus
Settings: Marburg virus pseudotyped entry inhibition, cell reporter; series mostly up to 37.8 µM
Potency is the fitted concentration of half-maximal effect.

Structure (SMILES) | Potency
COc1ccc(/C=C/C=N/NC(=O)COc2ccc(OC)cc2)cc1 | inactive
O=C(Cn1ncc2ccsc2c1=O)N1CCN(c2ccc(Cl)cc2)CC1 | inconclusive: 11.2 µM [inhibitor, single point]
C=C(C(C)=O)C(O)c1ccccc1 (stereo not given) | inconclusive: 0.944 µM [inhibitor, partial curve, poor fit]
CC(=O)Oc1ccc2ccccc2c1C(NC(=O)Cc1ccccc1)c1ccccc1Cl (stereo not given) | inconclusive: 32.6 µM [inhibitor, single point]
Fc1ccc(C2=CC(c3cccs3)n3nnnc3N2)cc1 (stereo not given) | inactive
Cc1ccc(SC(CC(=O)c2ccc(C(C)(C)C)cc2)C(=O)O)cc1 (stereo not given) | inconclusive: 22.4 µM [inhibitor, single point]
COc1cccc(NC(=O)CSc2cc(C)c3ccccc3n2)c1 | inconclusive: 2.82 µM [inhibitor, partial curve, poor fit]
CN(/N=C/c1ccc(O)cc1O)c1nc(-c2ccccc2)cc(-c2ccccc2)n1 | inconclusive: 2.51 µM [inhibitor, partial curve, poor fit]
CCOC(=O)c1nnn(-c2nonc2-n2cccc2)c1CN1CCC(C)CC1 | inconclusive: 35.5 µM [inhibitor, single point]
COC(=O)c1ccc2c(=O)n(CCCCCC(=O)NCCNC(C)=O)c(=O)[nH]c2c1 | inconclusive: 1.78 µM [inhibitor, single point]
O=C(/C=C/c1cc([N+](=O)[O-])ccc1OC(F)F)Nc1ccc(OC(F)F)cc1 | inconclusive: 1.12 µM [inhibitor, full curve, poor fit]
Cc1cccc(NS(=O)(=O)c2cccc(C(=O)NCC(C)(C)N3CCOCC3)c2)c1 | inconclusive: 35.5 µM [inhibitor, single point]
COc1cccc(-c2ccc3nnc(SCC(=O)N4CCOCC4)n3n2)c1 | inactive
O=C(O)CN(CCOCCOCCN(CC(=O)O)CC(=O)O)CC(=O)O | inconclusive: 31.6 µM [activator, single point]
CSc1ccccc1NC(=O)CN(C)CC(=O)Nc1cc(C)ccc1C | inconclusive: 25.1 µM [inhibitor, single point]
COc1cc([C@@H]2c3cc4c(cc3[C@H](O)[C@H]3COC(=O)[C@H]23)OCO4)cc(OC)c1OC | inconclusive: 0.0326 µM [inhibitor, full curve, poor fit]
CC1CCN(C(C(=O)NC2CCCCC2)c2cc3c(cc2[N+](=O)[O-])OCO3)CC1 (stereo not given) | inactive
C/C(=C1/SC(N2CCOCC2)=NC1=O)c1ccc(Br)cc1 | inconclusive: 5.62 µM [activator, single point]
N#CC1=C(N)Oc2c(c(=O)sc3ccccc23)C1c1ccncc1 (stereo not given) | inconclusive: 7.08 µM [inhibitor, partial curve]
CCN(CC)S(=O)(=O)c1ccc(C)c(NC(=O)/C=C/c2cccs2)c1 | inconclusive: 12.6 µM [inhibitor, single point]
COc1ccc(CCNC(=O)Cn2nnc(-c3ccccc3F)n2)cc1OC | inactive
O=C(O)CC(c1cccc(Cl)c1)n1cccc1 (stereo not given) | inactive
CSCCC(NC(=O)c1ccccc1Br)C(=O)NNC(=O)c1csc(N2CCOCC2)n1 (stereo not given) | inactive
O=C(CNC(=O)c1ccc(Br)o1)NNC(=O)c1cccc(Cl)c1 | inconclusive: 3.16 µM [activator, full curve]

2 of these compounds in a different format.

| Structure (SMILES) | Potency |
| --- | --- |
| COc1cccc(-c2ccc3nnc(SCC(=O)N4CCOCC4)n3n2)c1 | inactive |
| O=C(O)CN(CCOCCOCCN(CC(=O)O)CC(=O)O)CC(=O)O | inconclusive: 31.6 µM [activator, single point] |

Next entries.

Structure (SMILES) | Potency
CS(=O)(=O)c1ccc2nc(NC(=O)c3cccs3)sc2c1 | active: 2.24 µM
CCOC(=O)C1=C(CC)Nc2ccccc2N=C1NC(=O)c1ccc(S(=O)(=O)N(C)C)cc1 | inactive
O=C(CCCSc1nc2ccccc2c(=O)[nH]1)c1ccc(F)cc1 | inconclusive: 6.31 µM [inhibitor, partial curve, poor fit]
CCOC(=O)Cn1nc(C)c([N+](=O)[O-])c1C | inactive
O=C(CSc1nc2ccccc2o1)N1CCCC1 | inactive
Cc1ccc(CNC(=S)NCc2ccncc2)cc1 | inactive
Nc1nn(S(=O)(=O)c2cccc3nsnc23)cc1-c1ccc(Br)cc1 | inconclusive: 0.316 µM [activator, partial curve, poor fit]
CN1c2ccccc2C(=O)/C(=C\Nc2ccc(F)cc2F)S1(=O)=O | inconclusive: 5.62 µM [inhibitor, single point]
O=C(N/N=C/c1cccc(OCc2ccccc2)c1)c1ccc(Br)o1 | inconclusive: 6.31 µM [inhibitor, partial curve, poor fit]
ON/C=N/C(=S)Nc1ncc(C(F)(F)F)cc1Cl | inconclusive: 25.1 µM [activator, single point]
CCOC(=O)C1CCN(C(=O)CC(NS(=O)(=O)c2ccc(OC)cc2)C(C)C)CC1 (stereo not given) | inconclusive: 0.316 µM [inhibitor, partial curve, poor fit]
c1ccc(-n2ncc3c(NCCCN4CCOCC4)ncnc32)cc1 | inconclusive: 2.59 µM [activator, full curve]
Cc1ccc(-c2nc3ccccc3c(=O)n2-c2cccc(C)n2)cc1 | inconclusive: 6.31 µM [activator, single point]
CC1(C)CC(=O)C2=C(C1)O[C@@]1(CCCCN3C(=O)c4ccccc4C3=O)Cc3ccccc3[C@H]2O1 | inactive
Cc1ccc(CN2CN(S(=O)(=O)c3cccs3)c3nc4ccccc4nc32)cc1 | inactive
O=C(O)c1ccccc1C(=O)N1N=C2/C(=C/c3cccc([N+](=O)[O-])c3)CCCC2C1c1cccc([N+](=O)[O-])c1 (stereo not given) | inconclusive: 5.01 µM [activator, single point]
CCN1CCN(CC(=O)Nc2c(OC)cccc2OC)CC1 | inactive
CCc1ccccc1Nc1cc(C(=O)NCc2ccccn2)c2ccccc2n1 | inconclusive: 22.4 µM [inhibitor, single point]
Cn1c(SCc2ccccc2)nnc1C1CCCNC1 (stereo not given) | inactive
CC(C)NC(=O)N1CCC(n2nccc2NC(=O)CCOc2ccccc2)CC1 | inactive
N=c1ccn(Cc2ccccc2Cl)cc1 | inconclusive: 22.4 µM [inhibitor, single point]
N#C/C(=C\c1ccco1)Sc1nc2ccccc2s1 | inconclusive: 20.6 µM [inhibitor, single point]
O=C(O)C1CN(c2ncccc2[N+](=O)[O-])C1 | inconclusive: 5.62 µM [activator, single point]
CC1=NNC(=O)/C1=C\c1cn(-c2ccccc2)nc1-c1ccc(Cl)cc1 | inconclusive: 35.5 µM [inhibitor, single point]

Structure (SMILES) | Potency
Cc1ccc(/C=N/NC(=O)CN(Cc2ccccc2)S(=O)(=O)c2ccc3c(c2)OCCO3)cc1 | inconclusive: 0.731 µM [inhibitor, single point]
O=[N+]([O-])c1cc(Oc2cccnc2)cc([N+](=O)[O-])c1 | inactive
O=C(NCCc1c[nH]c2ccccc12)C1CCCN(S(=O)(=O)c2ccccc2)C1 (stereo not given) | inconclusive: 10 µM [inhibitor, partial curve, poor fit]
COC(=O)c1sc2nc(-c3ccccc3)nc(N3CCN(C)CC3)c2c1C | inconclusive: 14.1 µM [inhibitor, single point]
COc1ccc(-c2csc(-c3cccnc3)n2)cc1C | inactive
CC(NC(=O)C1CCC(CNS(=O)(=O)c2ccccc2)CC1)c1ccccc1 (stereo not given) | inconclusive: 15.8 µM [activator, single point]
Cc1cc(S(=O)(=O)Nc2ccc3ccccc3c2)c(C)s1 | inconclusive: 11.6 µM [inhibitor, partial curve, poor fit]
CCCn1nnc(NC(=O)c2ccc3ccccc3c2)n1 | inactive
N/C(=N\OC(=O)Cc1ccccc1[N+](=O)[O-])c1ccncc1 | inconclusive: 4.47 µM [activator, single point]
O=C(Nc1nc(-c2ccc3c(c2)OCO3)cs1)c1ccncc1 | active: 7.94 µM
CNC(=O)COc1coc(CN2CCN(c3ccccc3F)CC2)cc1=O | inconclusive: 3.16 µM [activator, full curve, poor fit]
Cc1cc(NC(=O)c2ccc3c(c2)OCCO3)ccc1NC(=O)c1ccco1 | inconclusive: 11.2 µM [inhibitor, partial curve, poor fit]
CCOC(=O)CCc1nn(C)c(=O)c2ccccc12 | inactive
CN(C)C(=O)CSc1cccc2cccnc12 | inconclusive: 35.5 µM [inhibitor, single point]
O=C(CCC(=O)N1CCC2(CC1)OCCO2)Nc1nnc(C(F)(F)F)s1 | inconclusive: 0.82 µM [inhibitor, full curve, poor fit]
Cc1ccc(-c2csc(N/N=C/C=C/c3ccccc3)n2)cc1 | inactive
FC(F)(Cl)c1nnc2ccc(Cl)nn12 | inconclusive: 14.1 µM [inhibitor, single point]
COc1ccccc1-n1cc(CN2CCN(CC(C)C)C(CCO)C2)cn1 (stereo not given) | inconclusive: 31.6 µM [inhibitor, single point]
C=CCn1cc(C(=O)N2CCc3ccccc3C2)c(=O)c2cc(S(=O)(=O)N(CC)CC)ccc21 | inactive
COc1cccc(-c2ocnc2C(=O)Nc2ccc3c(c2)CCC3)c1 | inactive
CC(C)CNC(=S)N(Cc1ccco1)Cc1cc2cc3c(cc2[nH]c1=O)OCCO3 | inconclusive: 12.6 µM [inhibitor, partial curve]
N#Cc1ccc(CSc2nnc(-c3cccs3)n2-c2ccccc2)cc1 | inconclusive: 29.1 µM [inhibitor, single point]
